Results deposited as PubChem BioAssay AID493246 (Drosophila RNAi Screening Center, 2011).

Screen: 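Genes fly cells need to grow and stay alive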 (primary screen)
Cell system: Drosophila Kc and S2R+ cells
Reagent: long dsRNA against Drosophila genes
Measured: 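Cell number per well after knock-down, printed as raw plate values; calls were based on per-plate z-scores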
Reading the numbers: Kc cell number and S2R+ cell number: higher = more cells remaining
Active means: 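Active when the per-plate z-score of cell number is 3 or more in the direction of fewer cells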
The deposit covers about 21,000 reagents; shown is a random part of those that have a named target and a result. In the full data, 429 (2%) are marked active. 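Values are raw and not normalised between plates; calls rest on per-plate z-scores that were not deposited.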 A number with no mark means an inactive call. A plus sign joins genes that one reagent is predicted to hit. Reagent sequences are not shown. Not given: the amount of reagent, the time to read-out.

no.	Target gene	DRSC id	Kc cell number, rep 1	Kc cell number, rep 2	S2R+ cell number, rep 1	S2R+ cell number, rep 2
1	CG3045	DRSC04331	1.41e6	1.49e6	1.03e6	1.14e6
2	Dtwd2 (DTW domain containing 2)	DRSC12501	1.64e6	1.95e6	1.28e6	1.41e6
3	NC2alpha (Negative Cofactor 2alpha)	DRSC04059	1.27e6	1.39e6	1.04e6	1.02e6
4	CG14805	DRSC18554	1.50e6	1.47e6	1.04e6	1.11e6
5	CG14573	DRSC11734	1.40e6	1.71e6	1.27e6	1.32e6
6	CG11865	DRSC01872	1.68e6	1.75e6	1.21e6	1.44e6
7	SmB (Small ribonucleoprotein particle protein SmB)	DRSC03437	1.08e6	1.20e6	8.31e5	9.44e5
8	CG30287	DRSC03875	5.36e5		8.89e5	
9	CG14229	DRSC19585	1.57e6	1.59e6	8.99e5	1.07e6
10	CG11050	DRSC02125	1.18e6	1.29e6	4.55e5	4.25e5
11	CG34217	DRSC05083	1.46e6	1.54e6	9.74e5	1.06e6
12	wuho	DRSC18101	1.47e6	1.42e6	9.70e5	1.12e6
13	shg (shotgun)	DRSC04714	1.43e6	1.52e6	1.12e6	1.20e6
14	CG32445	DRSC11678	1.48e6	1.57e6	1.04e6	1.14e6
15	CG11626	DRSC14336	1.35e6	1.53e6	1.05e6	1.09e6
16	CG14492	DRSC06463	1.54e6	1.60e6	1.21e6	1.31e6
17	Vrp1 (Verprolin 1)	DRSC04148	1.36e6	1.48e6	1.02e6	9.80e5
18	mRpL17 (mitochondrial ribosomal protein L17)	DRSC08350	1.53e6	1.43e6	9.29e5	1.10e6
19	CG4951	DRSC15682	6.14e5		8.29e5	
20	nudE	DRSC09000	1.37e6	1.38e6	1.09e6	1.21e6
21	nudE	DRSC10962	1.30e6	1.32e6	1.10e6	1.19e6
22	CG18538	DRSC06765	1.54e6	1.56e6	1.11e6	1.18e6

Quoted from above (6 entries):
no.	Target gene	DRSC id	Kc cell number, rep 1	Kc cell number, rep 2	S2R+ cell number, rep 1	S2R+ cell number, rep 2
12	wuho	DRSC18101	1.47e6	1.42e6	9.70e5	1.12e6
13	shg (shotgun)	DRSC04714	1.43e6	1.52e6	1.12e6	1.20e6
14	CG32445	DRSC11678	1.48e6	1.57e6	1.04e6	1.14e6
15	CG11626	DRSC14336	1.35e6	1.53e6	1.05e6	1.09e6
16	CG14492	DRSC06463	1.54e6	1.60e6	1.21e6	1.31e6
17	Vrp1 (Verprolin 1)	DRSC04148	1.36e6	1.48e6	1.02e6	9.80e5

More results:
no.	Target gene	DRSC id	Kc cell number, rep 1	Kc cell number, rep 2	S2R+ cell number, rep 1	S2R+ cell number, rep 2
23	hiro (highroad)	DRSC08564	1.34e6	1.42e6	1.10e6	1.20e6
24	Syx4 (Syntaxin 4)	DRSC18586	1.38e6	1.40e6	1.05e6	1.18e6
25	CG15022	DRSC08476	1.67e6	1.71e6	9.98e5	1.07e6
26	Fib (Fibrillarin)	DRSC04614	1.56e6	1.62e6	1.10e6	1.35e6
27	nonC (no-on-and-no-off transient C)	DRSC18366	5.65e5		8.27e5	
28	nonC (no-on-and-no-off transient C)	DRSC18367	1.39e6	1.39e6	1.00e6	1.06e6
29	CG2993	DRSC14284	1.22e6	1.35e6	1.30e6	1.35e6
30	CG2993	DRSC15457	1.59e6	1.67e6	1.25e6	1.31e6
31	Girdin	DRSC08292	1.47e6	1.46e6	1.12e6	1.26e6
32	CG18135	DRSC10295	1.88e6	1.76e6	1.35e6	1.44e6
33	mTerf3 (mitochondrial transcription termination factor 3)	DRSC11759	1.53e6	1.54e6	1.28e6	1.34e6
34	CG31251	DRSC16247	1.11e6	1.35e6	1.01e6	1.09e6
35	tin (tinman)	DRSC17083	1.46e6	1.67e6	1.21e6	1.39e6
36	Amph (Amphiphysin)	DRSC07578	1.39e6	1.39e6	1.12e6	1.20e6
37	pre-mod(mdg4)-U + mod(mdg4)	DRSC13476	1.57e6	1.53e6	1.08e6	1.14e6
38	CG13001	DRSC19520	1.34e6	1.43e6	9.66e5	1.13e6
39	CG7006	DRSC16169	1.53e6	1.53e6	1.27e6	1.29e6
40	CG34002	DRSC09512	1.48e6	1.41e6	1.00e6	1.17e6
41	CG34002	DRSC11953	1.55e6	1.61e6	1.05e6	1.28e6
